Reference: article PMC4459819
These are yes or no findings as the source states them, for the method shown. Binding seen in cells or lysates may run through a third protein. Some binding calls cover weakened binding; strength is not graded here.

Amino acid sequences for entries named in this document (tags omitted). A change or cut given only in a name is not applied to a line headed by its entry. Chains listed by the source or under a name are the forms on record and can include a tag or linker. Residues count along the entry.
UniProt Q96A56: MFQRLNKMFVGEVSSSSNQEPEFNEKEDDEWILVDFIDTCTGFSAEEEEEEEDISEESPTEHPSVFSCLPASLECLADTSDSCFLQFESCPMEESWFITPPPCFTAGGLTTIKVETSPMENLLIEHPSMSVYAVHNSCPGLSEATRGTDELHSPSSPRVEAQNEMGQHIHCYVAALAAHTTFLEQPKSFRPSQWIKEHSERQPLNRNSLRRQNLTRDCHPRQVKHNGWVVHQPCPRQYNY
TP53INP1α-NTAP (tumor protein 53-induced nuclear protein 1, isoform α) (Q96A56, form named): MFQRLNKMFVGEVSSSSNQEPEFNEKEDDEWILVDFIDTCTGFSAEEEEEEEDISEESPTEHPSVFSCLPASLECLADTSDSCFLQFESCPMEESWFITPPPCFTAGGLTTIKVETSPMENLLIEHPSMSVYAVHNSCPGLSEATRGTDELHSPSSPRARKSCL
UniProt Q9BXM7, residues 78-581: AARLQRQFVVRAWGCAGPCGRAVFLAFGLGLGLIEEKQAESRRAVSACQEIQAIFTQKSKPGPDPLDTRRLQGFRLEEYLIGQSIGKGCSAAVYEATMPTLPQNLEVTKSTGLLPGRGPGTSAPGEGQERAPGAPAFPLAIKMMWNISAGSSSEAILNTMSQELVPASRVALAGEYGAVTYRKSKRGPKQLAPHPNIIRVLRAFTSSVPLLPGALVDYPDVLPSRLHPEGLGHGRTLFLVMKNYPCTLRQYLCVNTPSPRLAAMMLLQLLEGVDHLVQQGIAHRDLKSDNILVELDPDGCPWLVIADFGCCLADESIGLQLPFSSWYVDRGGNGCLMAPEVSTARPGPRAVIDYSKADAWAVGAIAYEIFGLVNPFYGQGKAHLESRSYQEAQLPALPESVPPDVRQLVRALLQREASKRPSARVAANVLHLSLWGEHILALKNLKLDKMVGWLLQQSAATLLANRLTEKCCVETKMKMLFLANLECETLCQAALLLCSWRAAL
UniProt O60260: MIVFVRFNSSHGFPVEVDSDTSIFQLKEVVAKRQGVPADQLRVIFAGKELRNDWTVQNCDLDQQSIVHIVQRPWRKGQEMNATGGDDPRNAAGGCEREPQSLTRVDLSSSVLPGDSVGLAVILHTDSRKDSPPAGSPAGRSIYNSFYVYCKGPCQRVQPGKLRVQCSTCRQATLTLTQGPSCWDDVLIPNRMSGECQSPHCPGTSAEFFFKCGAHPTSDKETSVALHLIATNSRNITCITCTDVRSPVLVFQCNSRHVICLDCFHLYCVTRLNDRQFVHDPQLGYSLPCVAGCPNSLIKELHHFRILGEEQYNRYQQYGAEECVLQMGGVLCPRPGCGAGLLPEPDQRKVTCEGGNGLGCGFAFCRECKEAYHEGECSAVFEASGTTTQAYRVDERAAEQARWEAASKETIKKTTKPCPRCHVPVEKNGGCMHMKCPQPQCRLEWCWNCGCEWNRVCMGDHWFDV

What was measured:
[1] = biological target: TP53INP1α-NTAP (tumor protein 53-induced nuclear protein 1, isoform α) (human) (UniProt Q96A56); test: co-IP; HEK293T cells transfected 24 h with TP53INP1α- or β-NTAP vector or empty pNTAP vector; cells lysed; protein complexes purified on streptavidin-containing resin (InterPlay Mammalian TAP Purification Kit); SDS-PAGE and immunoblot for PINK1, PARKIN, BNIP3, BNIP3L/NIX
[2] = biological target: TP53INP1β-NTAP (tumor protein 53-induced nuclear protein 1, isoform β) (human) (UniProt Q96A56); test: as above

Row | Substance | binding [1] | binding [2]
1 | PINK1 (from UniProt Q9BXM7 78-581) | binds | binds
2 | PARKIN (from UniProt O60260 1-465) | binds | binds
